From the supplement of paper PMC6411743
± gives the standard deviation of the averaged measurements. The list shows a part of the results.

The chains behind the UniProt entries cited, without tags or fusion partners. Where a name states a change or a piece, a line headed by the entry shows the natural chain unless it says otherwise.
UniProt P14927: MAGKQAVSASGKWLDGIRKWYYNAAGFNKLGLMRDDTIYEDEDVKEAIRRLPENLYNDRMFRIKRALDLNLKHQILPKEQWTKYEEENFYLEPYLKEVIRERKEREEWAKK
UniProt P16930: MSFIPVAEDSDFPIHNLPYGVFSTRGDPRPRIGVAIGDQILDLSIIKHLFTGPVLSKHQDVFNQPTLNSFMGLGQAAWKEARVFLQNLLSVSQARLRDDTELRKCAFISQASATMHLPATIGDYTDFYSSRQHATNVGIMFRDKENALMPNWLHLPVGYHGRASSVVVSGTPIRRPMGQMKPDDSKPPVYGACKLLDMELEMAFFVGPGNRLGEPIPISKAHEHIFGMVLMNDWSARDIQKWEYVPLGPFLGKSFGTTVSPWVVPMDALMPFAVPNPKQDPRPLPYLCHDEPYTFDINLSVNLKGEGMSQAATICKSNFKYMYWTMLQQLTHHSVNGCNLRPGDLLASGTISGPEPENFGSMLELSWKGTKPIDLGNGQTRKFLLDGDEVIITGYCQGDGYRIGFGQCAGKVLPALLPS
UniProt P07919: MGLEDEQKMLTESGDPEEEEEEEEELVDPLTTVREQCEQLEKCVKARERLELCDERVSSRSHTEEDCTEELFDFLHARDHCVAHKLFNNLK
UniProt P20336: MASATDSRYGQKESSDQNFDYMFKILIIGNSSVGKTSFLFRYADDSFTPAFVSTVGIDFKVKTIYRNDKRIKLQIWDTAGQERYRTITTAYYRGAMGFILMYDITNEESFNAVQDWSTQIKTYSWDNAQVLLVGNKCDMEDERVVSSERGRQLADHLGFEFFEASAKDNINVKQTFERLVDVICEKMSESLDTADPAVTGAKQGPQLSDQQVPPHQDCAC
UniProt P17707: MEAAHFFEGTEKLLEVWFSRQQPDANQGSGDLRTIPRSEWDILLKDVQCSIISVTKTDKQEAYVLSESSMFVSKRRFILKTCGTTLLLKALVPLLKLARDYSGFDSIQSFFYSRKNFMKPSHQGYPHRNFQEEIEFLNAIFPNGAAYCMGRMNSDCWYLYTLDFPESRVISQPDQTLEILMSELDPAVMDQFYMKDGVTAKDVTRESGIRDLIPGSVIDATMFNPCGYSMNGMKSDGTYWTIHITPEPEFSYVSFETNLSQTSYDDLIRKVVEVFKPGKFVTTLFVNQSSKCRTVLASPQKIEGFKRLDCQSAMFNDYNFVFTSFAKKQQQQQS
UniProt P23610: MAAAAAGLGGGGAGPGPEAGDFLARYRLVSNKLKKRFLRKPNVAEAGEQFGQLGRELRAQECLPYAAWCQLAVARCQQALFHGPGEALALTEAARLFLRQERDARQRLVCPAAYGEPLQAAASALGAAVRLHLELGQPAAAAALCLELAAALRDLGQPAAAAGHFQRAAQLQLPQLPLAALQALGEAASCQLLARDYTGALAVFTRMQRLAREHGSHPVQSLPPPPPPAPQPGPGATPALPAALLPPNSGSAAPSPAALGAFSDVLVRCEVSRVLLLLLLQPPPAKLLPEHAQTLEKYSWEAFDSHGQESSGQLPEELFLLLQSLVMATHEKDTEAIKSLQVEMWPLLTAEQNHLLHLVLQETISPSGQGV
UniProt P21580: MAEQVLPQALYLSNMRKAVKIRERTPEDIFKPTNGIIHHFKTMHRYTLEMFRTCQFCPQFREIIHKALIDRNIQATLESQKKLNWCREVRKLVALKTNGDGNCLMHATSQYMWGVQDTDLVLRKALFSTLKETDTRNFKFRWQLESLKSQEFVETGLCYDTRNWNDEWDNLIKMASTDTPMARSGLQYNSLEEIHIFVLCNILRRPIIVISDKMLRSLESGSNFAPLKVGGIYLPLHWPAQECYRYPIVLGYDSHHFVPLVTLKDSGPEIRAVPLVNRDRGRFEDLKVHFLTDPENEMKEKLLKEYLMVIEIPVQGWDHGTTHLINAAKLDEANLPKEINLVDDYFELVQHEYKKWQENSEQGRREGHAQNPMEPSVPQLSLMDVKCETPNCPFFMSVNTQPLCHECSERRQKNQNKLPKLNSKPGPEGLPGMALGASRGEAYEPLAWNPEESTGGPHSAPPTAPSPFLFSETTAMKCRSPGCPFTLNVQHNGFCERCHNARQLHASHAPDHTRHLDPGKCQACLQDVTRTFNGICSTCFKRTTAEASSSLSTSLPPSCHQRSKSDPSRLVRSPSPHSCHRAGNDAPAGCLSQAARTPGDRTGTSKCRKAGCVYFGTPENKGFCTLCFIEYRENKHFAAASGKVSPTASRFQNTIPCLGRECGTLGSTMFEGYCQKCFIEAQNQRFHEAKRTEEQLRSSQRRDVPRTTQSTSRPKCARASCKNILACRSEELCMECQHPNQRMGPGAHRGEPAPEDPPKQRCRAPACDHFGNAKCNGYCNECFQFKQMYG
UniProt P19397: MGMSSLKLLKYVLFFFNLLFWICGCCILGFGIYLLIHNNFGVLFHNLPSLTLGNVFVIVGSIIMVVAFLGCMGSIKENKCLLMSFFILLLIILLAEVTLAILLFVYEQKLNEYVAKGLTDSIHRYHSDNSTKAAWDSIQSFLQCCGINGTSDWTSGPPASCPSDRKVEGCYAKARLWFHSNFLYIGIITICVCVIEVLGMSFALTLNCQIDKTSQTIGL
UniProt P18754: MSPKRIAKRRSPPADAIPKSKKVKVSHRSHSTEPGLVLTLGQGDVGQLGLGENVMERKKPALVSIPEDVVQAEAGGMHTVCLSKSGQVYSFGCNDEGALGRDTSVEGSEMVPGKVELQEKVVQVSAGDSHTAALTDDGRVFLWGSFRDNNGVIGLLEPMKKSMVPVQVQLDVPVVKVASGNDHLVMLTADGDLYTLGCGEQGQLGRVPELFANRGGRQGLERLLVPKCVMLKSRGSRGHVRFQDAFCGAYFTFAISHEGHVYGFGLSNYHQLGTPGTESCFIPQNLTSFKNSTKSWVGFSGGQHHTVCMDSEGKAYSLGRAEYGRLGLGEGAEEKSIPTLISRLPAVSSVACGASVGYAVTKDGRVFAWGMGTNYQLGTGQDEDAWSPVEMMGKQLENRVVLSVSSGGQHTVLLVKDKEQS
UniProt P18615, whole entry: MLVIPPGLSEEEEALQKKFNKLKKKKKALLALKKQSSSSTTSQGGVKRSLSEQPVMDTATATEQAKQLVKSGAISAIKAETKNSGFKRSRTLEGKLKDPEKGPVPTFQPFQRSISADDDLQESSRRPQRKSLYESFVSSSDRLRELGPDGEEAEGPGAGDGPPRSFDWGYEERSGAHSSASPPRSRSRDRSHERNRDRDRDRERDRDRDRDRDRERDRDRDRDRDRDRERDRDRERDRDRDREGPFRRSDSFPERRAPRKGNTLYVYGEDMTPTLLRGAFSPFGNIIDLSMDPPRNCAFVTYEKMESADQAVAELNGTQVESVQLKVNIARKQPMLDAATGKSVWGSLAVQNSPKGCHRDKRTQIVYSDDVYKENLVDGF
UniProt P19838: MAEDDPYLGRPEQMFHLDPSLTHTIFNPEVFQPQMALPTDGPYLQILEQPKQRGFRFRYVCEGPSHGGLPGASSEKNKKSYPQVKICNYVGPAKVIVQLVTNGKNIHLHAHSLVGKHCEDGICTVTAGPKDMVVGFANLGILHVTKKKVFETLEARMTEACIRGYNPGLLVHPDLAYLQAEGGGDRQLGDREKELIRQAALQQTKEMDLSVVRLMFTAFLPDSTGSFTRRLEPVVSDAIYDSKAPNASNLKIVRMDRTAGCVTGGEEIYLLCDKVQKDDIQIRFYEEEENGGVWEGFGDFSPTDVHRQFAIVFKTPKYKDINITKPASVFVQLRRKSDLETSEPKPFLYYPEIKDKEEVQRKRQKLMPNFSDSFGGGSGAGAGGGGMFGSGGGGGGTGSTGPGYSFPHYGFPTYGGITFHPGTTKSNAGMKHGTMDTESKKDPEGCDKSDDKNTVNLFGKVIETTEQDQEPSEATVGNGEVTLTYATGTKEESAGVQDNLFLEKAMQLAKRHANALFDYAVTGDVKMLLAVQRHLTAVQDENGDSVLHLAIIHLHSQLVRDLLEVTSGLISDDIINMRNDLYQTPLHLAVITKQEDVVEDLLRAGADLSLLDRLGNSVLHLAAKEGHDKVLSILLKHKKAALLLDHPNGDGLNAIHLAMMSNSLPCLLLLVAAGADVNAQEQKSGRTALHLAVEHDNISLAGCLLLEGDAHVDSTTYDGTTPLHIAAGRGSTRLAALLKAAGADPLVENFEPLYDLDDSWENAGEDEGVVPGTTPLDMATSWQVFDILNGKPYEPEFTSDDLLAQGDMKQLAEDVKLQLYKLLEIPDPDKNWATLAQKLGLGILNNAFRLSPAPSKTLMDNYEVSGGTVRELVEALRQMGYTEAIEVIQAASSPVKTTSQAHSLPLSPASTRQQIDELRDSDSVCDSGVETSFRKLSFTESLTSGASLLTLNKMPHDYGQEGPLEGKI
UniProt P21953: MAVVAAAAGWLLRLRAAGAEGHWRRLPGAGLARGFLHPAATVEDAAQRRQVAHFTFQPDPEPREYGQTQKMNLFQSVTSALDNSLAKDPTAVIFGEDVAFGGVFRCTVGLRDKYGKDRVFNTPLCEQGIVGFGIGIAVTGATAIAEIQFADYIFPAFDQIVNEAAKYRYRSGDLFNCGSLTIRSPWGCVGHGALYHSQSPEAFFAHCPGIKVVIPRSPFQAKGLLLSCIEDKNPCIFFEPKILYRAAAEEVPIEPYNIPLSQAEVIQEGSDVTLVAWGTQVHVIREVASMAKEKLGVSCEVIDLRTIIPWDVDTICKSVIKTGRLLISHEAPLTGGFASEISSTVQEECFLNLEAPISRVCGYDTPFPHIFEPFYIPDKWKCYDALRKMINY
UniProt P09622, whole entry: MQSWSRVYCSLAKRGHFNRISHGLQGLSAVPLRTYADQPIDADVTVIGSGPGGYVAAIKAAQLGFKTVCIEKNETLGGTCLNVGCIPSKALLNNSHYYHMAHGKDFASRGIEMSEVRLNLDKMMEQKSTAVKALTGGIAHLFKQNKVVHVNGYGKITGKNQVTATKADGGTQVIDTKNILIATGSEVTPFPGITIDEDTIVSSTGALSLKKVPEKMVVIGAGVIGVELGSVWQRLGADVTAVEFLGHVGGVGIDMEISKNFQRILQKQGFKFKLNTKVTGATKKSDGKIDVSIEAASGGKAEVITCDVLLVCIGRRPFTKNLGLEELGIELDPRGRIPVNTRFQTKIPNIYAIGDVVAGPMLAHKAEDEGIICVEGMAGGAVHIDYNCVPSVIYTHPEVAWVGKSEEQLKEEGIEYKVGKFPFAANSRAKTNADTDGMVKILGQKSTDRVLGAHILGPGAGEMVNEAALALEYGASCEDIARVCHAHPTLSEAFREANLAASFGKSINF
UniProt P18065: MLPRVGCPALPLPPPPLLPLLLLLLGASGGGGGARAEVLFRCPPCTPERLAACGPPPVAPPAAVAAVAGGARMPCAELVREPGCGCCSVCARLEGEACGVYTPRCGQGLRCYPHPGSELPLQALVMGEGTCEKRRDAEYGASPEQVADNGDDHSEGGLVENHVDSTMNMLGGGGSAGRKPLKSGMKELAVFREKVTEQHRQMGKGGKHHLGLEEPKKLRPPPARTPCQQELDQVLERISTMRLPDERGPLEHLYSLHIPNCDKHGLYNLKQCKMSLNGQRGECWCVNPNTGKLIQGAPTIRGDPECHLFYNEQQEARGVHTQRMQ
UniProt P14735, whole entry: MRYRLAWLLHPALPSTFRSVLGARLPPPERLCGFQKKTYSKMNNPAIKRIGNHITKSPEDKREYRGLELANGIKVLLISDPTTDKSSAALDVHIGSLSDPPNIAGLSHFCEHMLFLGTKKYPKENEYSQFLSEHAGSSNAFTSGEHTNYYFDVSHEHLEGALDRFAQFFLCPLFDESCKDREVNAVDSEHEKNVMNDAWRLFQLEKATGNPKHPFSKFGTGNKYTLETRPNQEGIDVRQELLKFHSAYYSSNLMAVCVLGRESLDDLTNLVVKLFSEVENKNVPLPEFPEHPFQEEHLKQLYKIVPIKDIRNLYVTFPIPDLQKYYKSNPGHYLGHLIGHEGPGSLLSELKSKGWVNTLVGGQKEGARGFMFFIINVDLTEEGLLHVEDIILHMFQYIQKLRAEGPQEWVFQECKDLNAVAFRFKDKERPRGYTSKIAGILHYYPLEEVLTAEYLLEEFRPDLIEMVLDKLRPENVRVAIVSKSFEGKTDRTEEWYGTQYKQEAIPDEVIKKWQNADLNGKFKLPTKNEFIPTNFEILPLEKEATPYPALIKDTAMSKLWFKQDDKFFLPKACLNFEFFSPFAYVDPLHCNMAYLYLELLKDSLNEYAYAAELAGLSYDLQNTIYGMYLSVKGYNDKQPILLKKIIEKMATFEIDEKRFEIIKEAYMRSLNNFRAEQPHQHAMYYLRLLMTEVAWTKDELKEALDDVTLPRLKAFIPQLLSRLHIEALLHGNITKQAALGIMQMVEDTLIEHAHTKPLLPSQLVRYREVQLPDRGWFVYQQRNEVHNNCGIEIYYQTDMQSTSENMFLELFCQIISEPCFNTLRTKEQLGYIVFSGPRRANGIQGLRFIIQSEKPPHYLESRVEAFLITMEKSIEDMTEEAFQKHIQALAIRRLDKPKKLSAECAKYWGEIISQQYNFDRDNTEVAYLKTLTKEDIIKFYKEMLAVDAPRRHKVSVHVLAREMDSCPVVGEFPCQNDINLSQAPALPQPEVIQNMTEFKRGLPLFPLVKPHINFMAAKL

Compound: Nc1nc2c(ncn2[C@@H]2O[C@H](COP(=O)(O)OP(=O)(O)OP(=O)(O)O)[C@@H](O)[C@H]2O)c(=O)[nH]1 [guanosine triphosphate]
Assay: NP40-soluble protein abundance relative to vehicle (solubility fold change) (ratio); higher = more soluble protein in presence of GTP
In short: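 Across three independent experiments, values are fold changes against the detergent-processed vehicle for each replicate, based on vsn-normalised intensities. The samples were Jurkat crude lysate treated with eight concentrations (0.1 to 10 mM) for 10 min at room temperature and then 3 min at 37 °C. Lysate was solubilised with 0.8% NP40 and benzonase, ultracentrifuged, and the supernatant analysed by TMT-labelled LC-MS/MS.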

Target | NP40-soluble protein abundance (concentration: 0.1mM) | NP40-soluble protein abundance (concentration: 0.5mM) | NP40-soluble protein abundance (concentration: 1mM) | NP40-soluble protein abundance (concentration: 2mM) | NP40-soluble protein abundance (concentration: 4mM) | NP40-soluble protein abundance (concentration: 6mM) | NP40-soluble protein abundance (concentration: 8mM) | NP40-soluble protein abundance (concentration: 10mM)
UQCRB (UniProt P14927) | 0.986 ± 0.084 | 0.94 ± 0.019 | 1.04 ± 0.08 | 0.994 ± 0.063 | 0.962 ± 0.086 | 0.971 ± 0.038 | 0.99 ± 0.04 | 1.01 ± 0.076
UniProt P16930 and related entries | 1.02 ± 0.073 | 1.02 ± 0.055 | 0.921 ± 0.044 | 0.9 ± 0.082 | 0.892 ± 0.074 | 0.886 ± 0.056 | 0.8305 ± 0.0077 | 0.811 ± 0.075
UniProt P19174 and related entries | 1.05 ± 0.04 | 1.06 ± 0.06 | 0.952 ± 0.021 | 0.975 ± 0.066 | 0.967 ± 0.047 | 0.944 ± 0.051 | 0.9149 ± 0.0042 | 0.882 ± 0.039
UniProt P19338 and related entries | 0.907 ± 0.1 | 0.857 ± 0.098 | 0.91 ± 0.09 | 0.885 ± 0.12 | 1.09 ± 0.12 | 1.23 ± 0.12 | 1.39 ± 0.08 | 1.41 ± 0.094
UniProt P11274 and related entries | 1.05 ± 0.058 | 1.06 ± 0.064 | 0.986 ± 0.067 | 1 ± 0.064 | 1.03 ± 0.068 | 0.972 ± 0.053 | 0.967 ± 0.021 | 0.919 ± 0.035
UQCRH (UniProt P07919) | 1.15 ± 0.29 | 1.1 ± 0.11 | 0.929 ± 0.43 | 0.888 ± 0.38 | 0.826 ± 0.38 | 0.868 ± 0.25 | 0.871 ± 0.25 | 1.2 ± 0.066
RAB3A (UniProt P20336) | 0.98 ± 0.12 | 0.896 ± 0.087 | 0.934 ± 0.12 | 0.873 ± 0.12 | 0.962 ± 0.14 | 0.872 ± 0.12 | 0.917 ± 0.14 | 0.863 ± 0.15
AMD1 (UniProt P17707) | 1.2 ± 0.21 | 1.16 ± 0.087 | 1.22 ± 0.11 | 1.2 ± 0.23 | 1.21 ± 0.2 | 1.2 ± 0.1 | 1.16 ± 0.082 | 1.13 ± 0.06
UniProt P23610 | 0.94 ± 0.011 | 0.906 ± 0.053 | 1.03 ± 0.055 | 1.05 ± 0.027 | 1.06 ± 0.04 | 1.04 ± 0.059 | 0.995 ± 0.079 | 1.07 ± 0.068
NCK1 (UniProt P16333) | 1.01 ± 0.03 | 0.993 ± 0.032 | 0.965 ± 0.026 | 0.94 ± 0.022 | 0.942 ± 0.037 | 0.928 ± 0.031 | 0.925 ± 0.033 | 0.879 ± 0.049
TNFAIP3 (UniProt P21580) | 1.112 ± 0.011 | 1.06 ± 0.038 | 1.05 ± 0.047 | 1.06 ± 0.038 | 1.12 ± 0.041 | 1.02 ± 0.025 | 1.02 ± 0.071 | 1.03 ± 0.047
UniProt P16278 and related entries | 1.07 ± 0.032 | 1.06 ± 0.065 | 1.03 ± 0.026 | 1.04 ± 0.064 | 1.04 ± 0.059 | 0.998 ± 0.085 | 0.984 ± 0.07 | 1.01 ± 0.06
UniProt P18206 and related entries | 0.973 ± 0.036 | 0.951 ± 0.037 | 0.956 ± 0.03 | 0.943 ± 0.065 | 0.949 ± 0.061 | 0.936 ± 0.05 | 0.962 ± 0.02 | 0.938 ± 0.041
UniProt P10155 and related entries | 1.08 ± 0.086 | 1.09 ± 0.13 | 0.932 ± 0.047 | 0.968 ± 0.12 | 0.948 ± 0.087 | 0.931 ± 0.068 | 0.905 ± 0.024 | 0.863 ± 0.094
UniProt P13929 and related entries | 0.951 ± 0.03 | 0.985 ± 0.0047 | 0.911 ± 0.021 | 0.891 ± 0.029 | 0.894 ± 0.014 | 0.9201 ± 0.0063 | 0.859 ± 0.046 | 0.86 ± 0.039
CD53 (UniProt P19397) | 0.92 ± 0.025 | 0.964 ± 0.016 | 0.971 ± 0.013 | 0.965 ± 0.034 | 0.896 ± 0.054 | 0.957 ± 0.037 | 0.869 ± 0.06 | 0.933 ± 0.053
M6PR (UniProt P20645) | 0.88 ± 0.035 | 0.889 ± 0.053 | 0.923 ± 0.064 | 0.867 ± 0.081 | 0.855 ± 0.074 | 0.875 ± 0.091 | 0.854 ± 0.048 | 0.881 ± 0.053
UniProt P26358 and related entries | 1 ± 0.024 | 1.03 ± 0.02 | 0.97 ± 0.034 | 0.967 ± 0.031 | 0.961 ± 0.027 | 0.962 ± 0.026 | 0.974 ± 0.03 | 0.955 ± 0.033
UniProt P18754 and related entries | 1.01 ± 0.037 | 1.03 ± 0.064 | 0.975 ± 0.054 | 0.966 ± 0.053 | 0.971 ± 0.033 | 0.971 ± 0.047 | 0.981 ± 0.052 | 0.958 ± 0.053
UniProt P18615 | 0.954 ± 0.11 | 1 ± 0.13 | 0.962 ± 0.13 | 0.956 ± 0.12 | 0.959 ± 0.13 | 0.957 ± 0.13 | 0.963 ± 0.1 | 0.971 ± 0.12
UniProt P19838 and related entries | 1.01 ± 0.041 | 1.04 ± 0.033 | 0.99 ± 0.027 | 0.977 ± 0.031 | 0.943 ± 0.018 | 0.954 ± 0.04 | 0.955 ± 0.0048 | 0.929 ± 0.026
BCKDHB (UniProt P21953) | 1.03 ± 0.048 | 1.07 ± 0.093 | 1.06 ± 0.14 | 1.07 ± 0.15 | 1.07 ± 0.15 | 1.1 ± 0.21 | 1.04 ± 0.11 | 1 ± 0.14
LCP1 (UniProt P13796) | 1.03 ± 0.14 | 0.873 ± 0.1 | 0.985 ± 0.096 | 0.818 ± 0.14 | 0.96 ± 0.11 | 0.813 ± 0.12 | 0.865 ± 0.085 | 0.801 ± 0.095
UniProt P11171 and related entries | 0.989 ± 0.016 | 0.98 ± 0.019 | 0.9569 ± 0.0056 | 0.924 ± 0.016 | 0.943 ± 0.017 | 0.94 ± 0.033 | 0.9392 ± 0.0012 | 0.923 ± 0.047
DLD (UniProt P09622) | 0.961 ± 0.017 | 1.01 ± 0.052 | 0.952 ± 0.059 | 0.966 ± 0.08 | 0.965 ± 0.079 | 0.994 ± 0.094 | 0.947 ± 0.071 | 0.924 ± 0.064
IGFBP2 (UniProt P18065) | 0.9 ± 0.042 | 0.884 ± 0.053 | 0.983 ± 0.035 | 0.997 ± 0.043 | 0.995 ± 0.028 | 0.934 ± 0.062 | 1.02 ± 0.054 | 1.05 ± 0.087
UniProt P08240 | 0.992 ± 0.025 | 1.018 ± 0.0088 | 0.997 ± 0.028 | 1.01 ± 0.026 | 1.02 ± 0.033 | 1.04 ± 0.039 | 1.05 ± 0.03 | 1.02 ± 0.057
UniProt P19367 and related entries | 1.04 ± 0.04 | 1.03 ± 0.07 | 0.924 ± 0.012 | 0.935 ± 0.06 | 0.922 ± 0.037 | 0.893 ± 0.04 | 0.869 ± 0.029 | 0.854 ± 0.064
UniProt P26368 and related entries | 1.21 ± 0.06 | 1.64 ± 0.23 | 1.67 ± 0.25 | 1.69 ± 0.25 | 1.7 ± 0.29 | 1.75 ± 0.25 | 1.73 ± 0.29 | 1.71 ± 0.26
UniProt P14735 and related entries | 1.03 ± 0.071 | 1.07 ± 0.076 | 0.933 ± 0.027 | 0.969 ± 0.08 | 0.939 ± 0.069 | 0.956 ± 0.05 | 0.888 ± 0.03 | 0.861 ± 0.058

Reprinted at random: two records from the list, in no set order.
Target | NP40-soluble protein abundance (concentration: 0.1mM) | NP40-soluble protein abundance (concentration: 0.5mM) | NP40-soluble protein abundance (concentration: 1mM) | NP40-soluble protein abundance (concentration: 2mM) | NP40-soluble protein abundance (concentration: 4mM) | NP40-soluble protein abundance (concentration: 6mM) | NP40-soluble protein abundance (concentration: 8mM) | NP40-soluble protein abundance (concentration: 10mM)
UniProt P23610 | 0.94 ± 0.011 | 0.906 ± 0.053 | 1.03 ± 0.055 | 1.05 ± 0.027 | 1.06 ± 0.04 | 1.04 ± 0.059 | 0.995 ± 0.079 | 1.07 ± 0.068
NCK1 (UniProt P16333) | 1.01 ± 0.03 | 0.993 ± 0.032 | 0.965 ± 0.026 | 0.94 ± 0.022 | 0.942 ± 0.037 | 0.928 ± 0.031 | 0.925 ± 0.033 | 0.879 ± 0.049
